Results as given in patent US20220119489A1, “COMPOSITIONS AND METHODS FOR […] […] DYSTROPHY AND RELATED DISORDERS” (CHILDREN'S MEDICAL CENTER CORPORATION, published 2022).

Biological target: CD82 (mouse) (mouse, UniProt P40237)
Experiment: IP with anti CD82 antibodies, mouse muscle tissue, mass spectrometry

Total: 2
Unique: 2
B1: VIME_MOUSE (other)
chain: STRSVSSSSYRRMFGGSGTSSRPSSNRSYVTTSTRTYSLGSALRPSTSRSLYSSSPGGAYVTRSSAVRLRSSVPGVRLLQDSVDFSLADAINTEFKNTRTNEKVELQELNDRFANYIDKVRFLEQQNKILLAELEQLKGQGKSRLGDLYEEEMRELRRQVDQLTNDKARVEVERDNLAEDIMRLREKLQEEMLQREEAESTLQSFRQDVDNASLARLDLERKVESLQEEIAFLKKLHDEEIQELQAQIQEQHVQIDVDVSKPDLTAALRDVRQQYESVAAKNLQEAEEWYKSKFADLSEAANRNNDALRQAKQESNEYRRQVQSLTCEVDALKGTNESLERQMREMEENFALEAANYQDTIGRLQDEIQNMKEEMARHLREYQDLLNVKMALDIEIATYRKLLEGEESRISLPLPTFSSLNLRETNLESLPLVDTHSKRTLLIKTVETRDGQVINETSQHHDDLE
